Test results from patent US12427210B2 (priority 2019, dated 2025).

Experiments:
[1] = general procedure: Fmoc solid-phase peptide synthesis; polystyrene (PS or DEG cross-linked), ChemMatrix (CM) or TentaGel (TG); linkers trityl, wang and rink amide; details: for step yield: late stage modification step
[2] = general procedure: Fmoc solid-phase peptide synthesis; Rink amide resin; details: whole synthesis, scale 50 μmol
[3] = general procedure: Fmoc solid-phase peptide synthesis; Fmoc-Cys(Trt)-WANG Tentagel; details: whole synthesis, scale 50 μmol, thioether ring; run 2
[4] = general procedure: Fmoc solid-phase peptide synthesis; trityl resin; details: whole synthesis, scale 50 μmol

Work on “Hex-[Cys(tMeBn(EuDOTA-AET))-Pro-Pro-Thr-Gln-Phe-Cys]-OH” yielded a step yield ([1]; thioether ring) of 83%.

“Hex-[Cys(tMeBn(DOTA-PP))-Pro-Pro-Thr-Gln-Phe-Cys]-Asp-NH2” gave a conjugation yield ([1]; conjugation step, on peptide intermediate, thioether ring) of 85%.

“Hex-[Cys(tMeBn(H-PP))-Pro-Pro-Thr-Gln-Phe-Cys]-Asp-NH2” gave an isolated mass ([2]; run 1) of 15.3 mg, an isolated mass ([2]; run 2) of 17.2 mg and an isolated yield ([1]; whole synthesis, on resin loading, scale of the general procedure 50 μmol and 100 μmol, run 1) of 25.3%. The isolated yield ([1]; whole synthesis, on resin loading, scale of the general procedure 50 μmol and 100 μmol, run 2) was 28.4%.

Substance “Hex-[Cys(tMeBn(GaDOTA-AET))-Pro-Pro-Thr-Gln-Phe-Cys]-OH” has a step yield ([1]; thioether ring) of 51%.

Substance “Hex-[Cys(tMeBn(InDOTA-AET))-Pro-Pro-Thr-Gln-Phe-Cys]-OH” has a step yield ([1]; thioether ring) of 81%.

With “Hex-[Cys(tMeBn(GaDOTA-PP))-Pro-Pro-Thr-Gln-Phe-Cys]-Asp-NH2” the step yield ([1]; thioether ring) was 69.3%.

With “Hex-[Cys(tMeBn(EuDOTA-PP))-Pro-Pro-Thr-Gln-Phe-Cys]-Asp-NH2” the step yield ([1]; thioether ring) was 79.3%.

In the case of “Hex-[Cys(tMeBn(DOTA-AET))-Pro-Pro-Thr-Gln-Phe-Cys]-OH”, the isolated mass [3] is reported as 11.0 mg, the isolated yield ([1]; whole synthesis, overall, scale of the general procedure 50 μmol and 100 μmol, thioether ring) is reported as 27.8% overall yield and the isolated yield ([1]; whole synthesis, scale 50 μmol, thioether ring) is reported as 15%. It also gave an isolated mass ([1]; whole synthesis, scale 50 μmol, thioether ring, run 1) of 20.44 mg.

For “Hex-[Cys-(tMeBn(ZnDOTA-AET))-Pro-Pro-Thr-Gln-Phe-Cys]-OH”, the step yield ([1]; thioether ring) was 77%.

With “Hex-[Cys(tMeBn(LuDOTA-PP))-Pro-Pro-Thr-Gln-Phe-Cys]-Asp-NH2” the step yield ([1]; thioether ring) was 60.1%.

“Hex-[Cys(tMeBn(H-AET))-Pro-Pro-Thr-Gln-Phe-Cys]-OH” gave an isolated mass ([4]; run 1) of 17.8 mg, an isolated mass ([4]; run 2) of 19.47 mg and an isolated yield ([1]; whole synthesis, on resin loading, scale 50 μmol, run 1) of 32.8%. For the same substance, the isolated yield ([1]; whole synthesis, on resin loading, scale 50 μmol, run 2) was 35.9%.

“Hex-[Cys-(tMeBn(CuDOTA-AET))-Pro-Pro-Thr-Gln-Phe-Cys]-OH” showed a step yield ([1]; thioether ring) of 88%.

“Hex-[Cys(tMeBn(LuDOTA-AET))-Pro-Pro-Thr-Gln-Phe-Cys]-OH” gave a step yield ([1]; thioether ring) of 82%.

“Hex-[Cys(tMeBn(InDOTA-PP))-Pro-Pro-Thr-Gln-Phe-Cys]-Asp-NH2” gave a step yield [1] of 68.1%.
